{"source": "patent US9075014B2", "about": "“pH-responsive fluorescent false neurotransmitters and their use” (THE TRUSTEES OF COLUMBIA UNIVERSITY IN THE CITY OF NEW YORK, priority 2011, dated 2015)", "tested_on": "LDCVs in PC-12 cells", "test": "Two-photon ratiometric pH measurement of secretory vesicles (LDCVs) in PC-12 cells", "settings": "extrapolated from ratio with in situ calibration curve, no drug"}
{"smiles": "NCCc1cc2cc(Cl)c(O)cc2oc1=O", "note": "[Mini202]", "values": [{"measurement": "mean pH of LDCVs in PC-12 cells", "result": "5.88±0.08"}]}
